Assay results reported in patent US20220177484A1, “MACROCYCLES WITH ANTIOXIDANT AND NEUROPROTECTIVE ACTIVITIES” (INSTITUTO BIOMAR, S.A, priority 2019, published 2022).
Some compounds share one wording; it may come from a single statement.

Legend:
[1] = Interference with the H2O2 determination method (H2O2 mixed with compound)
C57BL6/J male mice = test: Open field test under normal conditions; assay type: in vivo; settings: once-daily 150 mg/kg intraperitoneal

Structure (SMILES)	interference with the H2O2 determination method [1]	number of line crossings (open field) (C57BL6/J male mice; normal mice)	rearing in the central square (open field) (C57BL6/J male mice; normal mice)	time spent in central square of the arena (open field) (C57BL6/J male mice; normal mice (FIGS. 12 and 13))
C=CC1(C)C=C(C)C2C3C(Oc4ccc(cc4)CC4(O)NC(=O)C5(OC45)C(=O)C31)C1C(C)CC(C)CC21C (stereo not drawn) [Compound I]	absence of such interference	increased	increase	increased
C=C[C@@]1(C)C=C(C)C2C3[C@H](Oc4ccc(cc4)CC4C(=O)NC(=O)[C@H]4C(=O)[C@H]31)C1[C@@H](C)C[C@@H](C)C[C@@]21C (stereo partly drawn) [GKK1032, reference compound]	absence of such interference	–	–	–
C=C[C@@H]1C=C(C)[C@H]2[C@@H]3[C@H](Oc4ccc(cc4)C[C@@]4(O)C=C(C(=O)N4)C(=O)[C@@H]13)[C@@H]1[C@@H](C)C[C@@H](C)C[C@]12C [Pyrrocidine A, reference compound]	absence of such interference	–	–	–
